PubChem BioAssay AID1224828 | NIAID, 2016
Assay: 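Knock-downs that increase or decrease LPS-induced p65 nuclear translocation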 (primary screen). Cells: mouse RAW264.7 G9 macrophage reporter cells (GFP-p65, Tnf promoter-mCherry). Reagent: siRNA pool against mouse genes, 100 nM. Time to read-out: 2 days siRNA transfection, then 40 min LPS before fixation. Conditions: LPS (Salmonella minnesota R595) at 10 ng/ml. Read-out: 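Imaged p65 nuclear translocation ratio, normalised to the plate median, converted to robust z-scores and averaged across two replicates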. Reading the numbers: p65 translocation robust z-score: higher = more nuclear NF-kappaB p65 after LPS than the plate median; nuclear/cytoplasmic p65 ratio: higher = more nuclear NF-kappaB p65. Rule for the call: 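Called active when z exceeds 3.3 or falls under -1.56 (median of Tlr4 controls), giving activity score of at least 50; no calls for control wells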. Calls: active = hit (p65 shift raised or lowered); inactive = no clear change.
Here is a random part of about 17,000 deposited reagents. In the full data, 762 (4.5%) got an active call. 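Active calls include both raised and lowered p65 entry, mostly lowered; wells with fewer than 50 cells lack a z-score.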 Raw values are not corrected between plates.

| Target gene | p65 translocation robust z-score | nuclear/cytoplasmic p65 ratio, rep 1 | nuclear/cytoplasmic p65 ratio, rep 2 | low cell count flag | outcome |
| --- | --- | --- | --- | --- | --- |
| Cgref1 (cell growth regulator with EF hand domain 1) | 0.13 | 1.28 | 1.39 | enough cells to score | inactive |
| H2az1 (H2A.Z variant histone 1) | 0.25 | 1.43 | 1.44 | enough cells to score | inactive |
| Rbfox1 (RNA binding protein, fox-1 homolog (C. elegans) 1) | -0.39 | 1.21 | 1.47 | enough cells to score | inactive |
| 9330119M13Rik (RIKEN cDNA 9330119M13 gene) | 0.43 | 1.48 | 1.55 | enough cells to score | inactive |
| Ccdc121 (coiled-coil domain containing 121) | 1.28 | 1.37 | 1.46 | enough cells to score | inactive |
| Rpsa (ribosomal protein SA) | -1.01 | 1.32 | 1.27 | enough cells to score | inactive |
| Xpr1 (xenotropic and polytropic retrovirus receptor 1) | 3.45 | 2.65 | 1.42 | enough cells to score | active |
| Rara (retinoic acid receptor, alpha) | -1.49 | 1.33 | 1.29 | enough cells to score | inactive |
| Actr8 (ARP8 actin-related protein 8) | 0.1 | 1.56 | 1.76 | enough cells to score | inactive |
| Cbr3 (carbonyl reductase 3) | 1.05 | 1.7 | 1.42 | enough cells to score | inactive |
| Akr1a1 (aldo-keto reductase family 1, member A1) | -0.59 | 1.44 | 1.61 | enough cells to score | inactive |
| Insl6 (insulin-like 6) | -0.93 | 1.31 | 1.3 | enough cells to score | inactive |
| Gdf7 (growth differentiation factor 7) | -0.69 | 1.47 | 1.39 | enough cells to score | inactive |
| Catsper1 (cation channel, sperm associated 1) | 0.87 | 1.53 | 1.54 | enough cells to score | inactive |
| Cplx4 (complexin 4) | -1.2 | 1.19 | 1.36 | enough cells to score | inactive |
| Zfp105 (zinc finger protein 105) | 0.21 | 1.56 | 1.52 | enough cells to score | inactive |
| Uba2 (ubiquitin-like modifier activating enzyme 2) | – | 1.7 | 1.19 | fewer than 50 cells per well; well left out of scoring | inactive |
| Pcdhga11 (protocadherin gamma subfamily A, 11) | 0.87 | 1.55 | 1.35 | enough cells to score | inactive |
| Pip (prolactin induced protein) | 1.33 | 1.58 | 1.34 | enough cells to score | inactive |
| Rbbp5 | 0.73 | 1.53 | 1.71 | enough cells to score | inactive |
| Tbc1d13 (TBC1 domain family, member 13) | – | 1.43 | 1.06 | fewer than 50 cells per well; well left out of scoring | inactive |
| Or2w2 (olfactory receptor family 2 subfamily W member 2) | – | 1.43 | 1.43 | fewer than 50 cells per well; well left out of scoring | inactive |
| Tbc1d12 (TBC1D12: TBC1 domain family, member 12) | -0.66 | 1.28 | 1.13 | enough cells to score | inactive |
| Tle5 (TLE family member 5, transcriptional modulator) | 0.3 | 1.61 | 1.77 | enough cells to score | inactive |
| Dph6 (diphthamine biosynthesis 6) | – | 1.37 | 1.55 | fewer than 50 cells per well; well left out of scoring | inactive |
| Cacna2d2 (calcium channel, voltage-dependent, alpha 2/delta subunit 2) | – | 1.14 | 1.27 | fewer than 50 cells per well; well left out of scoring | inactive |
| Or6c217 (olfactory receptor family 6 subfamily C member 217) | – | 1.43 | 1.39 | fewer than 50 cells per well; well left out of scoring | inactive |
| Trmt1 (tRNA methyltransferase 1) | -1.36 | 1.37 | 1.35 | enough cells to score | inactive |
| Abra (actin-binding Rho activating protein) | 0.18 | 1.67 | 1.61 | enough cells to score | inactive |
| Txndc9 (thioredoxin domain containing 9) | – | 1.31 | 1.2 | fewer than 50 cells per well; well left out of scoring | inactive |
| Igdcc4 (immunoglobulin superfamily, DCC subclass, member 4) | -0.38 | 1.66 | 1.47 | enough cells to score | inactive |
| 2310067E19Rik (RIKEN cDNA 2310067E19 gene) | -2.13 | 1.09 | 1.01 | enough cells to score | active |
| Abhd18 (abhydrolase domain containing 18) | – | 1.24 | 1.32 | fewer than 50 cells per well; well left out of scoring | inactive |
| Crocc (ciliary rootlet coiled-coil, rootletin) | -0.44 | 1.66 | 1.34 | enough cells to score | inactive |
| Bet1 (Bet1 golgi vesicular membrane trafficking protein) | 0.74 | 1.64 | 1.51 | enough cells to score | inactive |
| Pcm1 (pericentriolar material 1) | 1.34 | 1.59 | 1.62 | enough cells to score | inactive |
| Mfn2 (mitofusin 2) | -1.41 | 1.55 | 1.3 | enough cells to score | inactive |
| Cdc14a (CDC14 cell division cycle 14A) | 0.19 | 1.46 | 1.43 | enough cells to score | inactive |
| Mpc1 | – | 1.56 | 1.42 | fewer than 50 cells per well; well left out of scoring | inactive |
| Ube2f (ubiquitin-conjugating enzyme E2F (putative)) | -0.3 | 1.24 | 1.54 | enough cells to score | inactive |
| Ccdc38 (coiled-coil domain containing 38) | 0.27 | 1.4 | 1.45 | enough cells to score | inactive |
| Pgap4 (post-GPI attachment to proteins GalNAc transferase 4) | -0.47 | 1.56 | 1.53 | enough cells to score | inactive |
| Cnga1 (cyclic nucleotide gated channel alpha 1) | 0.65 | 1.59 | 1.46 | enough cells to score | inactive |
| Rnasek (ribonuclease, RNase K) | 0.85 | 1.69 | 1.93 | enough cells to score | inactive |
| Fads2 (fatty acid desaturase 2) | – | 1.23 | 1.14 | fewer than 50 cells per well; well left out of scoring | inactive |
| Leprot (leptin receptor overlapping transcript) | -0.81 | 1.35 | 1.3 | enough cells to score | inactive |
| Rnf167 (ring finger protein 167) | 1.2 | 1.49 | 1.65 | enough cells to score | inactive |
| Smad2 (SMAD family member 2) | 0.78 | 1.75 | 1.58 | enough cells to score | inactive |
| Nrl (neural retina leucine zipper gene) | 0.05 | 1.44 | 1.44 | enough cells to score | inactive |
| Wdr18 (WD repeat domain 18) | 1.57 | 1.53 | 1.5 | enough cells to score | inactive |
| H4c14 (H4 clustered histone 14) | -2.12 | 1.41 | 1.26 | enough cells to score | active |
| Prl8a6 (prolactin family 8, subfamily a, member 6) | 0.13 | 1.43 | 1.2 | enough cells to score | inactive |
| Rpl13 (ribosomal protein L13) | -0.51 | 1.32 | 1.19 | enough cells to score | inactive |
| Capza1 (capping actin protein of muscle Z-line subunit alpha 1) | -0.67 | 1.49 | 1.54 | enough cells to score | inactive |
| Or10d4b (olfactory receptor family 10 subfamily D member 4B) | -0.28 | 1.39 | 1.23 | enough cells to score | inactive |
| Letm2 (leucine zipper-EF-hand containing transmembrane protein 2) | -0.69 | 1.54 | 1.6 | enough cells to score | inactive |
| Acot7 (acyl-CoA thioesterase 7) | -0.04 | 1.62 | 1.6 | enough cells to score | inactive |
| Ryr3 (ryanodine receptor 3) | 0.21 | 1.49 | 1.21 | enough cells to score | inactive |
| Clmb (calcimembrin) | 0.26 | 1.21 | 1.45 | enough cells to score | inactive |
